In the supplement of paper PMC10338343:
± gives the standard deviation. This is a selection; strong and weak results do not stand in their true shares. The uncertainty is large for many entries.

system: EfPiwi piRISC loaded with piRNA #1 (26 nt); assay: pre-steady-state target cleavage rate (min^-1); guide: piRNA #1 5'p-UGAGGUAGUAGGUUGUAUAGUAUCCA; MIWI and MILI are mouse PIWI proteins and EfPiwi is from a freshwater sponge; tags in brackets are library labels; higher = faster piRNA-guided slicing of the target; conditions: auxiliary factor: 500 nM Ephydatia muelleri Gtsf1
Summary of the method: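 A burst-and-steady-state fit was used to obtain the pre-steady-state cleavage rate. The input data were sequencing reads of uncleaved targets, normalised to depth and to weakly complementary targets, from a […] transcribed, DNA-blocked target RNA library mixed with 1 nM active affinity-purified piRISC holding one synthetic guide, with or without 500 nM GTSF1 partner protein, in HEPES–potassium acetate buffer at 33 °C for 0–8 or 0–960 min. Three trials were pooled and k3 was capped at 0.0001 min^-1.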

Sequence | pre-steady-state target cleavage rate
GGAGACGAUACUAUACAACCACUACCUCA | 0.00795 ± 0.0036
GGAGACCAUACUAUACCAACCUACUACCUCA | 0.00761 ± 0.0031
GGAGACCUAUCUAUACAUGGAUGAUGGAGA [g14:g20:cont:t1A] | 0.000107 ± 0.02
GGAGACCUAUGAUAUGUUGCUCCUACCUCA | 0.000557 ± 0.011
GGAGACCUAACUAUACAACCUAUUACCUCA | 0.00738 ± 0.0043
GGAGACCUAUGAUAUCAUACCUACUACCUCA | 0.000373 ± 0.012
GGAGACCUUACUAUACAACGUACUACCACA | 0.00221 ± 0.0032
GGAGACCAUACUAAACAACGUACUACCUCA | 0.00133 ± 0.005
GGAGACCUUAGUAUACAACCUAGUACCUCA | 0.00169 ± 0.0027
GGAGACCAUACUAUACAACCUACUACCUCA [g2:g23:cont:t1A] | 0.0141 ± 0.0046
GGAGACCUUACUAUUCAACCUACUACGUCA | 0.00118 ± 0.0034
GGAGAGGAUACUAUACAACCUACUACCUGCA | 0.00613 ± 0.0026
GGAGACCAUUGAAUACAACCUACUACCUCA | 0.00581 ± 0.0033
GGAGUGGAUACCAUACAACCUACUACCUCA | 0.157 ± 0.051
GGAGAGGAUACUAUACAACGUACUACCUCA | 0.0053 ± 0.0021
GGAGAGCAUACUAUACAACCUACUACCUCA | 0.0285 ± 0.012
GGAGACCAUACUAUACAACCUUCAACCUCA | 0.000693 ± 0.005
GGAGACCAUACAAUACAACGUACUACCUCA | 0.00181 ± 0.0031
GGAGACCUAACUAUACUACCUACUACCACA | 0.00219 ± 0.0046
GGAGACCAUAGUAUACAACGUACUACCUCA | 0.00187 ± 0.0033

Sequence | pre-steady-state target cleavage rate
GGAGACCUAUGAUAUGUUCGUACUACGUCA | 0.000451 ± 0.009
GGAGACCAUACUACACAACCUACUACCUCA | 0.0182 ± 0.0078
GGAGACCUAUGUAUACAGCCUACUACCUCA | 0.00122 ± 0.0058
GGAGACCUUAGUUUACAACCUACUACCUCA | 0.00216 ± 0.0046
GGAGACCUAUGUAUUACAACCUACUACCUCA | 0.0036 ± 0.0033
GGAGACCUAUCUAUACAACGUACAACCUCA | 0.00155 ± 0.0056
GGAGACCUAUGUAUCACAACCUACUACCUCA | 0.00213 ± 0.0035
GGAGAGGAUACUAAAGAACCUACUACCUCA | 0.00164 ± 0.0045
GGAGACCUAUCAAUACAUCCUACUACCUCA | 0.00304 ± 0.003
GGAGACCUUACUACACAACCUACUACCUCA | 0.00432 ± 0.0039
GGAGACGUUACUAUACAACCUACUACGUCA | 0.00396 ± 0.0018
GGAGACCUAUGAUAUGUUCCUGCUACCUCA | 0.000164 ± 0.011
GGAGACCUAACUUUACAACCUACUACGUCA | 0.000877 ± 0.009
GGAGACGAUACUAUACAACCUACGUACCUCA | 0.00418 ± 0.0019
GGAGACCUUAGUAUAGAACCUACUACCUCA | 0.000735 ± 0.0061
GGAGACCUUACAAUACAACCUACAACCUCA | 0.000986 ± 0.0058
GGAGACCAUACUAAACAACCAACUACCUCA | 0.0012 ± 0.0066
GGAGACCUAUCUAUACUACCUACUACCUGA | 0.00108 ± 0.0047
GGAGACCUAUGUAUACAACCUACUAUCUCA | 0.00205 ± 0.0047
GGAGAGGAUACUAUACAUCGUACUACCUCA | 0.00364 ± 0.0019

Reformatted as comma-separated lines: part of the list above.
Sequence,pre-steady-state target cleavage rate
GGAGAGGAUACUAAAGAACCUACUACCUCA,0.00164 ± 0.0045
GGAGACCUAUCAAUACAUCCUACUACCUCA,0.00304 ± 0.003
GGAGACCUUACUACACAACCUACUACCUCA,0.00432 ± 0.0039
GGAGACGUUACUAUACAACCUACUACGUCA,0.00396 ± 0.0018
GGAGACCUAUGAUAUGUUCCUGCUACCUCA,0.000164 ± 0.011
GGAGACCUAACUUUACAACCUACUACGUCA,0.000877 ± 0.009
GGAGACGAUACUAUACAACCUACGUACCUCA,0.00418 ± 0.0019
GGAGACCUUAGUAUAGAACCUACUACCUCA,0.000735 ± 0.0061
GGAGACCUUACAAUACAACCUACAACCUCA,0.000986 ± 0.0058
GGAGACCAUACUAAACAACCAACUACCUCA,0.0012 ± 0.0066
GGAGACCUAUCUAUACUACCUACUACCUGA,0.00108 ± 0.0047
GGAGACCUAUGUAUACAACCUACUAUCUCA,0.00205 ± 0.0047
